This passage reports cell number change and AC50 results from PubChem BioAssay AID2685 (National Center for Advancing Translational Sciences (NCATS), 2010).

This assay can be described thus: qHTS Assay for Lipid Storage Modulators in Drosophila S3 Cells.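 As to cell number change: cells counted by Cell Tracker Red CMTPX staining in the red channel.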 The conditions noted are these: BODIPY lipid droplet fluorescence, 18-24 h; for cell number change: measured here: cell count max response, cells fed with added oleic acid. The method in brief:
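Laser-scanning cytometry quantifies lipid droplet accumulation (500–530 nm total intensity; droplet/cell object ratio) in oleic acid-fed (400 uM added) Drosophila S3 cells treated with a concentration series. 20 uM Triacsin C defined 100% inhibition.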

The mark [1] stands for this setting: measured here: cell number channel AC50, cells fed with added oleic acid.
Where [2] appears, read: measured here: lipid fluorescence (Fed channel) AC50, cells fed with added oleic acid.

This is one part of the list. Further columns of the screen follow, without active or inactive calls. Most of these compounds were active or inconclusive in the main read-out, so they are no random draw. The note in brackets gives the kind of curve behind each potency; many fits are weak.

In the case of `CCOc1cc(NC(=O)C2CC2)c(OCC)cc1NC(=O)c1cccc(F)c1`, the cell number change was -6.67%.
By AC50 is commonly meant the midpoint of the concentration-response curve, whichever way the signal moves. Regarding `CCSc1nnc2ccc(-c3cccs3)nn12`, the cell number change was -22.4%. In addition, the AC50 under setting [1] was 2.06 µM [falling, partial curve, poor fit].
Turning to `O=C(COc1ccc(C(=O)NCc2cccnc2)cc1)Nc1cccc(C(F)(F)F)c1`, the cell number change was 126%. Also, the AC50 under setting [1] was 16.4 µM [rising, partial curve].
With `CC(NC(=O)COC(=O)CCc1ccccc1)c1ccccc1` (centres undefined), the cell number change was -32.8%. Besides, the AC50 under setting [1] is 3.26 µM [rising, single point]. Further, under setting [2], the AC50 was 0.13 µM [falling, full curve, poor fit].
With `COc1ccccc1NC(=O)CSc1nnc(CNC(=O)c2ccco2)o1`, the cell number change amounted to 44.2%. Further, under setting [1], the AC50 was 32.6 µM [rising, single point]. In addition, the AC50 under setting [2] was 29.1 µM [rising, single point].
For `CC(=O)c1c[nH]c2ccc(C)cc2c1=O`, the AC50 under setting [1] was 2.31 µM [rising, single point].
In the case of `Cc1nnc(SCC(=O)Nc2sc3c(c2C(=O)c2ccccc2)CCCC3)s1`, the cell number change amounted to 29%. In addition, under setting [2], the AC50 was 8.2 µM [rising, partial curve].
Consider `O=C(N/C(=C\c1ccc(Br)cc1)C(=O)N1CCOCC1)c1ccc(Br)o1`, for which the cell number change is 23.5%.
On to `O=S(=O)(NCC(c1ccco1)N1CCc2ccccc2C1)c1ccc(Br)cc1` (centres undefined), for which the cell number change was -61%. In addition, under setting [1], the AC50 was 29.1 µM [falling, single point]. The concentration at half-maximal activity (AC50) under setting [2] is 29.1 µM [falling, single point].
As to `Cc1ccccc1Nc1nc(N)nc(COC(=O)[C@@H](NC(=O)c2ccccc2Cl)C(C)C)n1`, the AC50 is 4.61 µM [falling, partial curve] under setting [1] and 2.91 µM [falling, partial curve] under setting [2].
On to `O=c1c(Cc2c(F)cccc2Cl)c(O)ccn1CCc1c[nH]c2ccccc12`, for which the cell number change is -35.2%. Further, the AC50 under setting [1] is 11.2 µM [falling, partial curve]. Also, the AC50 under setting [2] is 22.4 µM [falling, partial curve].
Take `CCOC(=O)N1CCN(C(=O)c2ccc(Cl)nc2)CC1`: the cell number change was -12.9%. Under setting [2], the AC50 is 18.4 µM [falling, single point].
Turning to `CCn1cc(C2=NOC(C(=O)O)C2)c(C)n1` (centres undefined), the cell number change is -5.77%. For the same compound, under setting [2], the AC50 was 0.00651 µM [rising, full curve, poor fit].
For `Cc1ccc(Nc2nc(N/N=C\c3ccc4c(c3)OCO4)nc(N3CCOCC3)n2)cc1`, the cell number change is -34.9%. Moreover, the AC50 under setting [1] is 1.84 µM [rising, partial curve].
As to `CCN1/C(=N\N)c2cccc3cccc1c23`, the cell number change is -15.1%. For the same compound, the AC50 under setting [1] was 2.59 µM [falling, single point]. Moreover, under setting [2], the AC50 is 5.17 µM [falling, single point].
Take `Nc1cccc(CN2CCCC2)c1`: the cell number change was -24%. Under setting [2], the AC50 was 7.31 µM [falling, full curve, poor fit].
In the case of `Cc1cc(C)c(C)c(S(=O)(=O)N2CCN(C(=O)c3cc(=O)[nH]c4ccccc34)CC2)c1C`, the cell number change is -0.0645%. Also, the AC50 under setting [2] was 3.26 µM [rising, single point].
For the compound `O=C(Nc1nc(-c2ccco2)c(-c2ccco2)s1)C1CC(=O)N(c2ccc3c(c2)OCCO3)C1` (centres undefined), the AC50 reads like this: under setting [1], 6.51 µM [rising, single point]; under setting [2], 6.51 µM [rising, single point].
Take `Cc1cc(-c2ccco2)n(CC(=O)NCc2ccccc2)n1`: the cell number change is -8.6%. In addition, the AC50 under setting [2] is 0.58 µM [falling, single point].
With `O=C(Nc1ccc(N2CCOCC2)cc1)c1cccc(S(=O)(=O)N2CCCCCC2)c1`, the cell number change was -88.1%. Moreover, the AC50 under setting [1] is 18.4 µM [falling, single point]. Under setting [2], the AC50 was 29.1 µM [falling, single point].
Turning to `Cn1c(=NC(=O)c2ccc(S(=O)(=O)N3CCCc4ccccc43)cc2)sc2cc(S(C)(=O)=O)ccc21`, the cell number change is -6.13%.
In the case of `CN(C)c1ccc(-c2nc3cnccn3c2Nc2ccc3c(c2)OCCO3)cc1`, the AC50 under setting [2] is 3.66 µM [falling, single point].
On to `CSc1ccccc1NC(=O)COC(=O)CCCOc1ccc(C)cc1`, for which the cell number change was -12%.
Take `COc1ccc2nc(C)cc(N/N=C/c3ccc(F)cc3)c2c1`: the cell number change is -32%. Further, the AC50 under setting [1] was 14.6 µM [falling, single point]. The AC50 under setting [2] is 1.64 µM [falling, partial curve].
With `COc1ccc(OC)c(C(=O)NC(CC(N)=O)c2ccc(NCc3ccc(F)c(F)c3)c([N+](=O)[O-])c2)c1` (centres undefined), the cell number change turned out to be 24.6%. The AC50 under setting [1] is 5.17 µM [rising, partial curve].
Regarding `COc1cc(NC(=O)Cc2cccs2)ccc1-n1cnnn1`, the cell number change stood at 76%. Besides, the concentration at half-maximal activity (AC50) under setting [1] is 0.326 µM [rising, full curve]. In addition, the half-maximal activity concentration (AC50) under setting [2] is 0.461 µM [rising, full curve].
On to `CCOC(=O)N1CCN(C(=O)C2CCN(S(=O)(=O)c3cc(C)ccc3OC)CC2)CC1`, for which the cell number change was 35.1%. Further, under setting [1], the AC50 was 10.3 µM [rising, partial curve].
Regarding `COc1cc(NC(=S)NC(=O)c2cc(C)cc(C)c2)ccc1NC(=O)c1cccs1`, the cell number change is -19.9%. For the same compound, under setting [2], the AC50 is 18.4 µM [falling, single point].
As to `O=C(CC(O)(C(F)(F)F)C(F)(F)F)Nc1ccc(Cl)c(Cl)c1`, the AC50 is, setting by setting: under setting [1], 5.8 µM [falling, single point]; under setting [2], 5.8 µM [falling, full curve].
On to `CN1C=CC=C/C1=C1\SC(=S)N(Cc2ccccc2)C1=O`, for which the cell number change is -49.3%. Further, under setting [2], the AC50 is 29.1 µM [falling, single point].
As to `CC(C)CN(C(=O)C1CCCCC1)C1CCS(=O)(=O)C1` (centres undefined), the cell number change is -51.3%. Under setting [1], the AC50 was 25.9 µM [falling, partial curve, poor fit]. Further, the AC50 under setting [2] is 23.1 µM [falling, partial curve].
As to `Cc1cccn2c(=O)c3cc(C(=O)NCCCOC(C)C)sc3nc12`, the cell number change worked out at 29.7%.
In the case of `Cc1ccccc1OCc1n[nH]c(=S)n1-c1cccc(Cl)c1`, the cell number change is -29.7%. Moreover, the AC50 under setting [2] is 0.58 µM [falling, single point].
In the case of `CCOC(=O)/C(=N\Nc1ccccc1)c1csc(Nc2ccc(C)cc2)n1`, the cell number change is -45.9%. In addition, under setting [2], the AC50 is 1.84 µM [rising, partial curve].
On to `Cc1ccc(C(=O)c2coc3ccc(O)c(Cl)c23)cc1`, for which the cell number change was -81.1%. The AC50 under setting [1] was 18.4 µM [falling, partial curve]. Besides, the AC50 under setting [2] is 23.1 µM [falling, partial curve].
For the compound `N/C(=N\OC(=O)CCCOc1ccccc1)c1cccc(Br)c1`, the cell number change is -1.25%.
